Experiment [1] has as its target IL-1R1 mutant 2 (rat residues at site 2, VIDE). Put plainly: Western blot of CHO conditioned medium.
The target in experiment [2] is IL-1R1 mutant 1 (rat residues at site 1, LSDIA). The experiment can be described thus: Western blot of CHO conditioned medium.
The target of experiment [3] is IL-1R1 mutant 10 (rat residues at site 10, TCFA). Put plainly: Western blot of CHO conditioned medium, antibody at 0.5 ug/mL.
The target of experiment [4] is IL-1R1 mutant 4 (rat residues at site 4, YSV). The description is as above.

No constants are given. Whether binding was seen depends on the method and setting. For some of these results: A result given as binding can be weak or reduced; the word gives no strength.

B1: anti-IL-1R1 monoclonal antibody 15C4 (antibody, V domains shown)
VH: EVQLMQSGAEVKKPGESLKISCKGSGYSFSFHWIAWVRQMPGKGLEWMGIIHPGASDTRYSPSFQGQVTISADNSNSATYLQWSSLKASDTAMYFCARQRELDYFDYWGQGTLVTVSS
VL: EIVLTQSPDFQSVTPKEKVTITCRASQSIGSSLHWYQQKPDQSPKLLIKYASQSFSGVPSRFSGSGSGTDFTLTINSLEAEDAAAYYCHQSSSLPLTFGGGTKVEIK
For B1, the binding entry in experiment [1] is “no binding (tested: 0.5 ug/mL)”; in experiment [2] it was “no binding (tested: 0.5 ug/mL)”; in experiment [3], “binds”; in experiment [4], “binds”.

The values above are taken from patent publication US20120269824A1.
